Structures can show the parent of a compound that is named as a salt. The list shows a part of the results. Part of the spread comes from offsets between plates or batches.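 Wild-type or misfolding-prone missense mutant B-domain-deleted factor VIII, fused to Gaussia luciferase, is stably expressed in HEK293 lines. Each score is (mean triplicate-well luminescence minus DMSO mean) divided by DMSO standard deviation. Hits score at least 2; lower scores could stem from decreased secretion or poorer cell viability.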
Experiments:
HEK293 WT BDD-FVIII-Gluc = assay: secreted FVIII-Gluc luciferase Z-score vs DMSO control; higher = more FVIII-Gluc secretion; conditions: 5 µM; 24 h
[1] = test system: HEK293 p.N1941S BDD-FVIII-Gluc; assay: as above; conditions: 5 µM; 24 h

For `C[C@]12CCC(=O)C=C1CC[C@@H]1[C@@H]2[C@@H](O)C[C@@]2(C)[C@H]1CC[C@]2(O)C(=O)CO` [Hydrocortisone (Cortisol)], the “secreted FVIII-Gluc luciferase Z-score” value (HEK293 WT BDD-FVIII-Gluc) was active: 4.12 and the “secreted FVIII-Gluc luciferase Z-score” value [1] was active: 4.65.
`O=C(CCCN1CCC(O)(c2ccc(Cl)cc2)CC1)c1ccc(F)cc1` [Haloperidol (Haldol)] was tested, and the “secreted FVIII-Gluc luciferase Z-score” value (HEK293 WT BDD-FVIII-Gluc) was inactive: -1.66 and the “secreted FVIII-Gluc luciferase Z-score” value [1] was inactive: 0.282.
With `Oc1c(Cl)cc(Cl)c2cccnc12` [Chloroxine] the “secreted FVIII-Gluc luciferase Z-score” value (HEK293 WT BDD-FVIII-Gluc) was inactive: 1.79 and the “secreted FVIII-Gluc luciferase Z-score” value [1] was inactive: 1.45.
In the case of `CCCCc1ncc(/C=C(\Cc2cccs2)C(=O)O)n1Cc1ccc(C(=O)O)cc1` [Eprosartan Mesylate], the “secreted FVIII-Gluc luciferase Z-score” value (HEK293 WT BDD-FVIII-Gluc) is reported as active: 3.76 and the “secreted FVIII-Gluc luciferase Z-score” value [1] is reported as inactive: -0.243.
`Clc1ccc(CSC(Cn2ccnc2)c2ccc(Cl)cc2Cl)cc1` (stereo not given) [Sulconazole Nitrate] was tested, and the “secreted FVIII-Gluc luciferase Z-score” value (HEK293 WT BDD-FVIII-Gluc) was inactive: -1.85 and the “secreted FVIII-Gluc luciferase Z-score” value [1] was inactive: -0.893.
`CCN(CC)CCOC(=O)C1(C2CCCCC2)CCCCC1` [Dicyclomine HCl] was tested, and the “secreted FVIII-Gluc luciferase Z-score” value (HEK293 WT BDD-FVIII-Gluc) was inactive: -1.25 and the “secreted FVIII-Gluc luciferase Z-score” value [1] was inactive: -0.183.
In the case of `CNC[C@H](O)c1ccc(O)c(O)c1` [Epinephrine bitartrate (Adrenalinium)], the “secreted FVIII-Gluc luciferase Z-score” value (HEK293 WT BDD-FVIII-Gluc) is reported as inactive: -0.185 and the “secreted FVIII-Gluc luciferase Z-score” value [1] is reported as inactive: -1.95.
In the case of `Nc1nc(Cl)nc2c1ncn2[C@@H]1O[C@H](CO)[C@@H](O)[C@@H]1F` [Clofarabine], the “secreted FVIII-Gluc luciferase Z-score” value (HEK293 WT BDD-FVIII-Gluc) is reported as inactive: -4.31 and the “secreted FVIII-Gluc luciferase Z-score” value [1] is reported as inactive: -12.4.
`O=c1[nH]c(=O)n([C@H]2C[C@H](O)[C@@H](CO)O2)cc1I` [Idoxuridine] was tested, and the “secreted FVIII-Gluc luciferase Z-score” value (HEK293 WT BDD-FVIII-Gluc) was inactive: -0.929 and the “secreted FVIII-Gluc luciferase Z-score” value [1] was inactive: -0.38.
With `CCN(Cc1ccncc1)C(=O)C(CO)c1ccccc1` (stereo not given) [Tropicamide] the “secreted FVIII-Gluc luciferase Z-score” value (HEK293 WT BDD-FVIII-Gluc) was inactive: -2.53 and the “secreted FVIII-Gluc luciferase Z-score” value [1] was inactive: -1.68.
